# Measured values published in US20240336927.
# The exact form of at least one protein or probe is not confirmed. No signal at the amounts used counts as a negative.
# Key:
# [1] = system: IgG MS1 (multiple sclerosis) (human); assay: EMSA; details: purified native protein; label: 32P
# [2] = system: IgG RA1 (rheumatoid arthritis) (human); assay: EMSA; details: purified native protein; label: 32P
Sequence,binding result [1],binding result [2]
GAGGCGGGAGGAUAGCUUGAGCCCAGGAGUUCGAGACCUGCCUGGGCAAUAUAGCGAGACCCCGUUCUC [BC200 RNA full-length],no binding,no binding
GGGGUUGGGGAUUUAGCUCAGUGGUAGAGCGCUUGCCUAGCAAGCGCAAGGCCCUGGGUUCGGUCCUCAGCUCC [BC1 RNA full-length],no binding,no binding
